{"source": "paper PMC8830069", "about": "“Metallo-β-Lactamase Inhibitor Phosphonamidate Monoesters” (ACS Omega, 2022)", "test_system": "E. coli ATCC 25922 NDM-1", "experiment": "microbe, parasite or virus in culture", "assay_type": "cell-based", "settings": "Escherichia coli, ATCC25922, read-out: Minimum inhibitory concentration of meropenem", "description": "The in vitro susceptibility of meropenem in combination with the different compounds was evaluated against E. coli expressing NDM-1 in a broth microdilution assay. A 96-well plate was prepared with the compounds in a twofold dilution series (final concentrations 1024–0.5 mg/L) in Muller Hinton II broth (MHB-II) in combination with 2, 4, or 8 mg/L meropenem. EDTA (100 μM) was used in combination with meropenem as control for inhibition of NDM-1. Three–five colonies of E. coli ATCC 25922 NDM-1 were suspended in 0.90% saline solution and adjusted to the 0.5 McFarland turbidity standard. The bacterial suspension was diluted in MHB-II and adjusted to a final inoculum of 5 × 10^5 CFU/mL."}
{"compound": "C[C@@H](O)[C@H]1C(=O)N2C(C(=O)O)=C(S[C@@H]3CN[C@H](C(=O)N(C)C)C3)[C@H](C)[C@H]12", "note": "[Meropenem, meropenem]", "values": [{"measurement": "MIC", "result": 32, "unit": "µg/mL"}]}
